# Measured values published in patent US5849690A (SmithKline Beecham Corporation, priority 1992, dated 1998).
# HELM strings list residues between dots; [ac] is acetyl, [am] amide, other brackets name non-standard units.
# Legend:
# [1] = general procedure: Boc solid-phase peptide synthesis; 4-methylbenzhydrylamine (MBHA) resin; BHA resin; hydroxymethyl resin for C-terminal ethylamides
# [2] = general procedure: Boc solid-phase peptide synthesis; BHA; conditions: whole synthesis
# [3] = general procedure: Boc solid-phase peptide synthesis; MBHA; conditions: whole synthesis, scale 1.0 mmol
# [4] = general procedure: Boc solid-phase peptide synthesis; hydroxymethyl resin; conditions: whole synthesis
# [5] = whole synthesis, scale 1.0 mmol
# [6] = whole synthesis, scale of the general procedure 1.0 mmol
Substance,"final purity (method not given) [1, 6]","isolated yield [1, 6]",isolated mass ([1]; whole synthesis),further results
PEPTIDE1{[ac].R.G.D.[dS].[am]}$$$$V2.0,95%,–,–,"isolated mass [1, 5]: 337 mg"
"PEPTIDE1{[ac].C.[MeArg].G.D.[Pen].[am]}$PEPTIDE1,PEPTIDE1,2:R3-6:R3$$$V2.0",95%,35%,–,"isolated mass [1, 5]: 209 mg"
"PEPTIDE1{[ac].C.K.G.D.[Pen].[am]}$PEPTIDE1,PEPTIDE1,2:R3-6:R3$$$V2.0",>97%,15%,–,"isolated mass ([1]; whole synthesis, scale 2.0 mmol): 180 mg"
"PEPTIDE1{[ac].C.R.G.D.S.C.[am]}$PEPTIDE1,PEPTIDE1,2:R3-7:R3$$$V2.0",90%,–,61 mg,"crude mass [1, 5]: 530 mg; crude yield [1, 6]: 78%"
"PEPTIDE1{[ac].C.[dR].G.D.[Pen].[am]}$PEPTIDE1,PEPTIDE1,2:R3-6:R3$$$V2.0",95%,50%,–,"isolated mass ([1]; whole synthesis, scale 1.00 mmol): 300 mg"
"PEPTIDE1{[ac].C.[MeArg].G.D.S.[Pen].[am]}$PEPTIDE1,PEPTIDE1,2:R3-7:R3$$$V2.0",94%,–,47.5 mg,"crude mass [1, 5]: 542 mg; crude yield [1, 6]: 75%"
Gly-MeArg-Gly-Asp-Ser-NH2 (RGDS; N-terminal Gly-Me; C-terminal amide; printed: Arg-Gly-Asp-Ser-),>95%,80%,–,isolated mass [2]: 406 mg
"N^α -Ac-Cyclo(S,S)Pen-Arg-Gly-Asp-Cys-NH2",95%,65%,400 mg,–
"PEPTIDE1{[ac].C.[HArg].G.D.[Pen].[am]}$PEPTIDE1,PEPTIDE1,2:R3-6:R3$$$V2.0",–,–,–,final purity (method not given) ([1]; late stage modification step): 95%; step yield ([1]; late stage modification step): 37%
"PEPTIDE1{[ac].C.[MeArg].G.D.S.C.[am]}$PEPTIDE1,PEPTIDE1,2:R3-7:R3$$$V2.0",>98%,–,222.3 mg,crude mass [3]: 678.6 mg; crude yield [3]: 98% crude yield
"N^α -Ac-Cyclo(S,S)Cys-MeArg-Gly-Asp-Cys-NH2 (RGDC; N-acetyl; cyclic disulfide; C-terminal amide; printed: Arg-Gly-Asp-Cys-)",>98%,–,–,"crude mass [1, 5]: 780 mg"
"N^α -Ac-Cyclo(S,S)Cys-Arg-Gly-Asp-Cys-NH2",95%,–,–,"crude mass [1, 5]: 280 mg; crude yield [1, 6]: 47%"
PEPTIDE1{[ac].R.R.G.D.F.[am]}$$$$V2.0,98%,–,–,isolated mass ([2]; scale 1.0 mmol): 303.4 mg
"PEPTIDE1{[ac].C.R.G.D.[Pen].[am]}$PEPTIDE1,PEPTIDE1,2:R3-6:R3$$$V2.0",>97%,–,–,"crude mass [1, 5]: 400 mg; crude yield [1, 6]: 65%"
"PEPTIDE1{[ac].C.R.G.D.[D-Pen].[am]}$PEPTIDE1,PEPTIDE1,2:R3-6:R3$$$V2.0",>96%,5.4%,–,"isolated mass ([1]; whole synthesis, scale 1.5 mmol): 50 mg"
N^α -Ac-Arg-Gly-Asp-Tyr-NH2,–,–,–,isolated mass ([2]; scale 0.5 mmol): 142.1 mg

Substance,"final purity (method not given) [1, 6]","isolated yield [1, 6]",isolated mass ([1]; whole synthesis),further results
"PEPTIDE1{[ac].C.R.G.D.[Pen].[NHEt]}$PEPTIDE1,PEPTIDE1,2:R3-6:R3$$$V2.0",97%,48%,–,isolated mass [4]: 307 mg
"PEPTIDE1{[Mpr].R.G.D.S.C.[am]}$PEPTIDE1,PEPTIDE1,1:R3-6:R3$$$V2.0",96%,79%,–,"isolated mass [1, 5]: 489 mg"
"N^α -Ac-Cyclo(S,S)Cys-Sar-Arg-Gly-Asp-Pen-NH2",95%,87%,600 mg,–
PEPTIDE1{[ac].R.G.D.S.[NHEt]}$$$$V2.0,>95%,–,–,–
N^α -Ac-Arg-Gly-Asp-Ser-NH2,–,–,–,isolated mass ([2]; scale 0.5 mmol): 80.8 mg
PEPTIDE1{[ac].R.G.D.[Nal].[am]}$$$$V2.0,>98%,–,–,isolated mass [3]: 57 mg
"Cyclo(S,S)Mpr-MeArg-Gly-Asp-Pen-NH2",>96%,63%,365 mg,–
PEPTIDE1{[ac].R.G.D.V.[am]}$$$$V2.0,>95%,–,–,isolated mass [3]: 125 mg
"N^α -Ac-Cyclo(S,S)Cys-D-MeArg-Gly-Asp-Pen-NH2",–,71%,450 mg,–
"PEPTIDE1{[ac].C.[Et2Arg].G.D.[Pen].[am]}$PEPTIDE1,PEPTIDE1,2:R3-6:R3$$$V2.0",95%,87%,590 mg,–
"PEPTIDE1{[ac].C.[MeArg].G.D.Y.C.[am]}$PEPTIDE1,PEPTIDE1,2:R3-7:R3$$$V2.0",95%,45%,–,"isolated mass [1, 5]: 350 mg"
"PEPTIDE1{[Mpr].[MeArg].G.D.S.C.[am]}$PEPTIDE1,PEPTIDE1,1:R3-6:R3$$$V2.0",>98%,–,–,"crude mass [1, 5]: 256.5 mg; crude yield [1, 6]: 40%"
"N^α -Ac-Cyclo(S,S)Pen-MeArg-Gly-Asp-Pen-NH2",95%,60%,395 mg,–
PEPTIDE1{[ac].[MeArg].G.D.S.[am]}$$$$V2.0,>96%,–,60.6 mg,"crude mass ([2]; scale 0.5 mmol): 75.8 mg; crude yield [1, 6]: 31%"
"N^α -Ac-Cyclo(S,S)Cys-D-Arg-Gly-Asp-Ser-Cys-NH2",95%,55%,370 mg,–
